{"source": "PubChem BioAssay AID192", "about": "(DTP/NCI, 2004)", "test_system": "BDF1 mice, B16 melanoma ip, median survival T/C", "assay": "NCI In Vivo Anticancer Drug Screen. Data for tumor model B16 Melanoma (intraperitoneal) in B6D2F1 (BDF1) mice", "details": "T/C endpoint: median survival time, higher T/C = longer survival", "how_it_was_run": "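Compounds were tested in mice carrying transplantable tumors. Survival or tumor size was recorded, and each value is the treated-group measurement (T) divided by that of the vehicle-treated control group (C).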", "key": {"[1]": {"details": "dose: 200.0 mg/kg/injection, schedule: Q01DX009 (ip), vehicle: saline with Tween-80"}}, "note": "The list does not hold the whole screen: it is rich in T/C values a quarter to a half above the control, in often repeated tests (any T/C) and in doses without a T/C. Further doses and runs are listed elsewhere. T/C gives the treated animals as a percentage of the vehicle group. Some doses have a count of surviving animals in place of a T/C: the source files T/C as zero there, which appears to mark a toxic dose or a test without result, not a measured value. Some survivor counts are full or nearly so, which does not show that the dose was tolerated: survival well below the control is almost never listed, so the zero probably covers shortened survival too. Counts of survivors are from the toxicity check (mostly the fifth day) where no day follows; animals may have died later. Schedule codes are those of the source, read here as Q, the interval in days (D) or hours (H), X, the number of doses. Some entries were tested several times; their values stand side by side, smallest first. Brackets with × count equal records among those shown. For survival time, this PubChem deposit counts one and a half times the control or more as active, and values a quarter to a half above the control carry no call in these data; other NCI protocols may use other cut-offs. Some T/C values carry the count of animals alive at the toxicity check (mostly the fifth day); without a count, all were alive then.", "data": [{"compound": "CCCCCCCCCCCCCCCCCCCCCC(=O)Nc1ccn(C2OC(CO)C(O)C2O)c(=O)n1", "note": "(centres undefined)", "values": [{"measurement": "T/C", "setting": "dose: 6.25 mg/kg/injection, schedule: Q01DX009 (ip), vehicle: saline with Tween-80", "result": "127 % of control"}, {"measurement": "T/C", "setting": "dose: 12.5 mg/kg/injection, schedule: Q01DX009 (ip), vehicle: saline with Tween-80", "result": "143 % of control"}, {"measurement": "T/C", "setting": "dose: 25.0 mg/kg/injection, schedule: Q01DX009 (ip), vehicle: saline with Tween-80", "result": "141 % of control [9 of 10 alive]"}, {"measurement": "T/C", "setting": "[1]", "result": "143 % of control"}]}, {"compound": "COc1cc(N(CCCl)CCCl)ccc1NC(=O)c1ccccc1", "values": [{"measurement": "T/C", "setting": "dose: 12.5 mg/kg/injection, schedule: Q01DX009 (ip), vehicle: saline", "result": "142 % of control"}, {"measurement": "T/C", "setting": "dose: 25.0 mg/kg/injection, schedule: Q01DX009 (ip), vehicle: saline", "result": "130 % of control"}, {"measurement": "survivor count", "setting": "dose: 50.0 mg/kg/injection, schedule: Q01DX009 (ip), vehicle: saline", "result": "8 of 8"}, {"measurement": "survivor count", "setting": "dose: 100.0 mg/kg/injection, schedule: Q01DX009 (ip), vehicle: saline", "result": "0 of 8"}]}, {"compound": "COc1cccc2c1C(=O)c1c(O)c3c(c(O)c1C2=O)C[C@H](O)C[C@@H]3OC1CC(N)C(O)C(C)O1", "note": "(some centres undefined)", "values": [{"measurement": "T/C", "setting": "dose: 6.25 mg/kg/injection, schedule: Q01DX001 (ip), vehicle: water", "result": "149 % of control"}, {"measurement": "survivor count", "setting": "dose: 100.0 mg/kg/injection, schedule: Q01DX001 (ip), vehicle: water", "result": "1 of 10 and 7 of 10"}, {"measurement": "survivor count", "setting": "dose: 200.0 mg/kg/injection, schedule: Q01DX001 (ip), vehicle: water", "result": "0 of 10 and 2 of 10"}, {"measurement": "survivor count", "setting": "dose: 400.0 mg/kg/injection, schedule: Q01DX001 (ip), vehicle: water", "result": "0 of 10 (2×)"}]}, {"compound": "CN=C(N)N/N=C(\\C)c1ccc2oc3ccc(/C(C)=N/NC(N)=NC)cc3c2c1", "values": [{"measurement": "survivor count", "setting": "dose: 100.0 mg/kg/injection, schedule: Q01DX009 (ip), vehicle: saline with Tween-80", "result": "4 of 10"}, {"measurement": "survivor count", "setting": "[1]", "result": "0 of 10"}]}, {"compound": "O=CC(NC(=O)N(CCCl)N=O)C(O)C(O)C(O)CO", "note": "(centres undefined)", "values": [{"measurement": "T/C", "setting": "dose: 1.0 mg/kg/injection, schedule: Q01DX009 (ip), vehicle: saline", "result": "144 % of control"}, {"measurement": "T/C", "setting": "dose: 1.87 mg/kg/injection, schedule: Q01DX009 (ip), vehicle: saline", "result": "106 [9 of 10 alive], 111 [8 of 10 alive], 125, 181, 183, 188, 199, 208 % of control"}, {"measurement": "T/C", "setting": "dose: 1.88 mg/kg/injection, schedule: Q01DX009 (ip), vehicle: saline", "result": "142 % of control"}, {"measurement": "T/C", "setting": "dose: 2.0 mg/kg/injection, schedule: Q01DX009 (ip), vehicle: saline", "result": "147 % of control"}, {"measurement": "T/C", "setting": "dose: 3.75 mg/kg/injection, schedule: Q01DX009 (ip), vehicle: saline, evaluated on day 45", "result": "162 % of control"}, {"measurement": "T/C", "setting": "dose: 3.75 mg/kg/injection, schedule: Q01DX009 (ip), vehicle: saline, evaluated on day 60", "result": "126, 127, 160, 188, 213, 223, 279, 288 % of control"}, {"measurement": "T/C", "setting": "dose: 6.8 mg/kg/injection, schedule: Q01DX009 (ip), vehicle: saline", "result": "138 % of control"}, {"measurement": "T/C", "setting": "dose: 7.5 mg/kg/injection, schedule: Q01DX009 (ip), vehicle: saline, evaluated on day 45", "result": "241 % of control"}, {"measurement": "T/C", "setting": "dose: 7.5 mg/kg/injection, schedule: Q01DX009 (ip), vehicle: saline, evaluated on day 60", "result": "95 [9 of 10 alive], 137, 211, 230, 259, 331 % of control"}, {"measurement": "survivor count", "setting": "dose: 7.5 mg/kg/injection, schedule: Q01DX009 (ip), vehicle: saline", "result": "10 of 10"}, {"measurement": "T/C", "setting": "dose: 13.0 mg/kg/injection, schedule: Q01DX001 (ip), vehicle: saline", "result": "126 % of control"}, {"measurement": "survivor count", "setting": "dose: 15.0 mg/kg/injection, schedule: Q01DX009 (ip), vehicle: saline", "result": "8 of 10, 9 of 10, 10 of 10 (2×)"}, {"measurement": "survivor count", "setting": "dose: 16.0 mg/kg/injection, schedule: Q01DX009 (ip), vehicle: saline", "result": "10 of 10"}, {"measurement": "survivor count", "setting": "dose: 30.0 mg/kg/injection, schedule: Q01DX009 (ip), vehicle: saline", "result": "2 of 10, 5 of 10, 9 of 10 (2×), 10 of 10"}, {"measurement": "survivor count", "setting": "dose: 32.0 mg/kg/injection, schedule: Q01DX009 (ip), vehicle: saline", "result": "10 of 10"}, {"measurement": "survivor count", "setting": "dose: 50.0 mg/kg/injection, schedule: Q01DX001 (ip), vehicle: saline", "result": "8 of 10 on day 6"}, {"measurement": "survivor count", "setting": "dose: 60.0 mg/kg/injection, schedule: Q01DX001 (ip), vehicle: saline with Tween-80", "result": "10 of 10"}, {"measurement": "survivor count", "setting": "dose: 67.0 mg/kg/injection, schedule: Q01DX001 (ip), vehicle: saline", "result": "8 of 12"}, {"measurement": "survivor count", "setting": "dose: 100.0 mg/kg/injection, schedule: Q01DX001 (ip), vehicle: saline", "result": "1 of 10 on day 6"}, {"measurement": "survivor count", "setting": "dose: 120.0 mg/kg/injection, schedule: Q01DX001 (ip), vehicle: saline with Tween-80", "result": "3 of 10"}]}]}
